Data published in publication PMC8752836.
These are yes or no findings as the source states them, for the method shown. Binding seen in cells or lysates may run through a third protein. Some results given as binding are weak or reduced against the parent protein; the word gives no strength.

Protein sequences, listed by entry. Tags and fused reporters are not part of them.
UniProt Q8WYP5: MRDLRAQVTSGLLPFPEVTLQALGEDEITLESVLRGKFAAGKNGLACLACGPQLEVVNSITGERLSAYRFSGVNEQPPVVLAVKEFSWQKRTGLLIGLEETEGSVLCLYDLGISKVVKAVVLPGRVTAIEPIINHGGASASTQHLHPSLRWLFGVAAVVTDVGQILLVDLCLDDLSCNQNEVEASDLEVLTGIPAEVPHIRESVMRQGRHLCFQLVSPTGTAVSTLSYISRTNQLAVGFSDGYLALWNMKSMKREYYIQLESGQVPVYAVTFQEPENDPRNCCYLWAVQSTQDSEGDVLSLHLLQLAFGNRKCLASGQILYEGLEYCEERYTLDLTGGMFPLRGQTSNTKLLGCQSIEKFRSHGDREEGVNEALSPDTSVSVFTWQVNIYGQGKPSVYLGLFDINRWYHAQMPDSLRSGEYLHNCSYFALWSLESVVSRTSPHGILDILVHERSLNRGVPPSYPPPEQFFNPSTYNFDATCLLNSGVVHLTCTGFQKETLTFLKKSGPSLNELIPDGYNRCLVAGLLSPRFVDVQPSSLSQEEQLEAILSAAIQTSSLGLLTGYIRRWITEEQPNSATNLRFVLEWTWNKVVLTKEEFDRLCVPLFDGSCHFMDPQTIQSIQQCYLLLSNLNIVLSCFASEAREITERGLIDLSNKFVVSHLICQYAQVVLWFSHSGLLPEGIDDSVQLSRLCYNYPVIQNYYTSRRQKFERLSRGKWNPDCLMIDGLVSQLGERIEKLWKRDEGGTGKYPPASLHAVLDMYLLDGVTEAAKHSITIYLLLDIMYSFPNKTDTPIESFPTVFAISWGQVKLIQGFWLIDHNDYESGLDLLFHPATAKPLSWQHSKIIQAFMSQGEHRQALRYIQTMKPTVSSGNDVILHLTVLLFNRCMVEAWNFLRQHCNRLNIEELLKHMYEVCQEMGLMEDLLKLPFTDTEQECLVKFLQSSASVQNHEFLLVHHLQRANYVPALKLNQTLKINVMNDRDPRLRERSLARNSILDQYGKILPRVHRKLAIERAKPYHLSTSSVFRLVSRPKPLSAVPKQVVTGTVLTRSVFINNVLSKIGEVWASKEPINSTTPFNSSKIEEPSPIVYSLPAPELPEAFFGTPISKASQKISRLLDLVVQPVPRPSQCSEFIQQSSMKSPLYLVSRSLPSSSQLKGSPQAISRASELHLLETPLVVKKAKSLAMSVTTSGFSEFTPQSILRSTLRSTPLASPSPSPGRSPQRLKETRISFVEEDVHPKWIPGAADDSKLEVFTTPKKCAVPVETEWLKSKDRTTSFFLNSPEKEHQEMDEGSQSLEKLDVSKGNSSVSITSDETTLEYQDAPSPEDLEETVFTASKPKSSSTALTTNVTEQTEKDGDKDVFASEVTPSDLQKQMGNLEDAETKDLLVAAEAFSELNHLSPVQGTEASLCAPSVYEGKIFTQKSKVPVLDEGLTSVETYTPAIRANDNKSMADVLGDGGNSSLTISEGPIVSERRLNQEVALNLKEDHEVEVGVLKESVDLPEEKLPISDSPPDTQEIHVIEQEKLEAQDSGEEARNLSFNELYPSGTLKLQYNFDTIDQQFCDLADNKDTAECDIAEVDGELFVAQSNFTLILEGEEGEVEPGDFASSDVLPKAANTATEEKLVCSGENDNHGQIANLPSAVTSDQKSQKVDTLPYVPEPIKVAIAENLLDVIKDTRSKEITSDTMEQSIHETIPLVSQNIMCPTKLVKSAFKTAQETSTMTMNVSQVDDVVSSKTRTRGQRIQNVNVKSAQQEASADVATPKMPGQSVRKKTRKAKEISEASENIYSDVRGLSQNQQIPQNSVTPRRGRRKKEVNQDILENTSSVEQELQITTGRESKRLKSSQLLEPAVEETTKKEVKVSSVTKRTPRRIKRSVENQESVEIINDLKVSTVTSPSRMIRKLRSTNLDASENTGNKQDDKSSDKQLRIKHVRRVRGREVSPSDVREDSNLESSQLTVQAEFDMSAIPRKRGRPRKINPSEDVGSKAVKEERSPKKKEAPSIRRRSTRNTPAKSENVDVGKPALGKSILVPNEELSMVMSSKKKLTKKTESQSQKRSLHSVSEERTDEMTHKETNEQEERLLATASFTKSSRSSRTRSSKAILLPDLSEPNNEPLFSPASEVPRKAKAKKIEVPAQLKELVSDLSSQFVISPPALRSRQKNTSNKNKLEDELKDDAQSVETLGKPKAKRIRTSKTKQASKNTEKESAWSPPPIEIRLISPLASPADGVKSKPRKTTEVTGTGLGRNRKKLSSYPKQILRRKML

T1: CTCF (human (endogenous in HCT-116)) (UniProt P49711)
T1 sequence: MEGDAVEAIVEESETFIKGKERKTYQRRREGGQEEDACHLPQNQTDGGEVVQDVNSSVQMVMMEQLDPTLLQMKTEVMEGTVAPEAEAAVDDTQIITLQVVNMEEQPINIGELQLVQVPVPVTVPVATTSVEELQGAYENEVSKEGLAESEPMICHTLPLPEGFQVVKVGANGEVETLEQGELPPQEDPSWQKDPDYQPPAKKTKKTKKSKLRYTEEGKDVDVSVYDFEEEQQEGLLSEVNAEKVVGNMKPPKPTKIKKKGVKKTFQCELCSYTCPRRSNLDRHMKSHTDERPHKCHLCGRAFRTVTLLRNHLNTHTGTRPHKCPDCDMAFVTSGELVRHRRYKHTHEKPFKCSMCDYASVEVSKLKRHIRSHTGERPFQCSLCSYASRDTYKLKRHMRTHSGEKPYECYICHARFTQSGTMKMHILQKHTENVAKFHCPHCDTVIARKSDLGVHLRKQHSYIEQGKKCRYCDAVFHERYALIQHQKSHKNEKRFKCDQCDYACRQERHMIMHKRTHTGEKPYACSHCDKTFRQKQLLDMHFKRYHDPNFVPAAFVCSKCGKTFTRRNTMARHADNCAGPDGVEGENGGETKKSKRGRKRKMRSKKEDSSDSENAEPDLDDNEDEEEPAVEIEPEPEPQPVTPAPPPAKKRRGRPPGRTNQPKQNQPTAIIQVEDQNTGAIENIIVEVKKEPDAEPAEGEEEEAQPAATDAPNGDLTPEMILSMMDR


Experiments:
[1] = target: T1, CTCF (human (endogenous in HCT-116)); experiment: proximity ligation; in situ proximity ligation assay (ISPLA) on HCT-116 cells fixed with 1% paraformaldehyde; mouse anti-CTCF with rabbit anti-AHCTF1 or anti-NUP133; cells with DMSO or BC21; no primary antibody as background control
[2] = target: T1, CTCF (human (endogenous in HCT-116)); experiment: co-IP; 250 ug protein of HCT-116 nuclear lysate (Nuclear Complex Co-IP kit, Active Motif), pre-cleared, anti-CTCF or normal mouse IgG overnight at 4 °C, Dynabeads protein G; detection by Simple Western (WES); WT and D3/E4 cells; cells with DMSO or 10 µM BC21 for 16 h

binding [1]	binding [2]	Molecule
binds	binds	AHCTF1 (from UniProt Q8WYP5 1-2266)
binds	binds	NUP133 (protein, UniProt Q8WUM0 1-1156) MFPAAPSPRTPGTGSRRGPLAGLGPGSTPRTASRKGLPLGSAVSSPVLFSPVGRRSSLSSRGTPTRMFPHHSITESVNYDVKTFGSSLPVKVMEALTLAEVDDQLTINIDEGGWACLVCKEKLIIWKIALSPITKLSVCKELQLPPSDFHWSADLVALSYSSPSGEAHSTQAVAVMVATREGSIRYWPSLAGEDTYTEAFVDSGGDKTYSFLTAVQGGSFILSSSGSQLIRLIPESSGKIHQHILPQGQGMLSGIGRKVSSLFGILSPSSDLTLSSVLWDRERSSFYSLTSSNISKWELDDSSEKHAYSWDINRALKENITDAIWGSESNYEAIKEGVNIRYLDLKQNCDGLVILAAAWHSADNPCLIYYSLITIEDNGCQMSDAVTVEVTQYNPPFQSEDLILCQLTVPNFSNQTAYLYNESAVYVCSTGTGKFSLPQEKIVFNAQGDSVLGAGACGGVPIIFSRNSGLVSITSRENVSILAEDLEGSLASSVAGPNSESMIFETTTKNETIAQEDKIKLLKAAFLQYCRKDLGHAQMVVDELFSSHSDLDSDSELDRAVTQISVDLMDDYPASDPRWAESVPEEAPGFSNTSLIILHQLEDKMKAHSFLMDFIHQVGLFGRLGSFPVRGTPMATRLLLCEHAEKLSAAIVLKNHHSRLSDLVNTAILIALNKREYEIPSNLTPADVFFREVSQVDTICECLLEHEEQVLRDAPMDSIEWAEVVINVNNILKDMLQAASHYRQNRNSLYRREESLEKEPEYVPWTATSGPGGIRTVIIRQHEIVLKVAYPQADSNLRNIVTEQLVALIDCFLDGYVSQLKSVDKSSNRERYDNLEMEYLQKRSDLLSPLLSLGQYLWAASLAEKYCDFDILVQMCEQTDNQSRLQRYMTQFADQNFSDFLFRWYLEKGKRGKLLSQPISQHGQLANFLQAHEHLSWLHEINSQELEKAHATLLGLANMETRYFAKKKTLLGLSKLAALASDFSEDMLQEKIEEMAEQERFLLHQETLPEQLLAEKQLNLSAMPVLTAPQLIGLYICEENRRANEYDFKKALDLLEYIDEEEDININDLKLEILCKALQRDNWSSSDGKDDPIEVSKDSIFVKILQKLLKDGIQLSEYLPEVKDLLQADQLGSLKSNPYFEFVLKANYEYYVQGQI
